Some of the results follow.
Tests used:
Assay in all cases: glycan array binding signal (z-score within array); higher = stronger binding
Conditions in all cases: glycan notation: IUPAC condensed, linker removed
[1] = target: Neu5Ac(a2-8)Neu5Ac
Summary of the method: (§1)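 Columns mapping to the same glycan were averaged after glycan names were converted to IUPAC-condensed notation. The data come from 3228 arrays in the Consortium for Functional Glycomics database, limited to those with an available protein sequence. Binding is reported as a within-array Z-score averaged across arrays of one protein sequence and across linkers.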

[2] = target: Neu5Ac(a2-8)Neu5Ac(a2-3)Gal(b1-3)GalNAc(b1-4)[Neu5Ac(a2-3)]Gal(b1-4)Glc
Summary of the method: as §1

[3] = target: Neu5Ac(a2-8)Neu5Ac(a2-3)Gal(b1-3)GalNAc(b1-4)[Neu5Ac(a2-8)Neu5Ac(a2-3)]Gal(b1-4)Glc
Summary of the method: as §1

[4] = target: Neu5Ac(a2-8)Neu5Ac(a2-3)Gal(b1-4)Glc
Summary of the method: as §1

[5] = target: Neu5Ac(a2-8)Neu5Ac(a2-3)Gal(b1-4)GlcNAc
Summary of the method: as §1

[6] = target: Neu5Ac(a2-8)Neu5Ac(a2-3)[Gal(b1-3)GalNAc(b1-4)]Gal(b1-4)Glc
Summary of the method: as §1

[7] = target: Neu5Ac(a2-8)Neu5Ac(a2-3)[GalNAc(b1-4)]Gal(b1-4)Glc
Summary of the method: as §1

[8] = target: Neu5Ac(a2-8)Neu5Ac(a2-8)Neu5Ac
Summary of the method: as §1

[9] = target: Neu5Ac(a2-8)Neu5Ac(a2-8)Neu5Ac(a2-3)Gal(b1-4)Glc
Summary of the method: as §1

[10] = target: Neu5Ac(a2-8)Neu5Ac(a2-8)Neu5Ac(a2-3)[Gal(b1-3)GalNAc(b1-4)]Gal(b1-4)Glc
Summary of the method: as §1

[11] = target: Neu5Ac(a2-8)Neu5Ac(a2-8)Neu5Ac(a2-3)[GalNAc(b1-4)]Gal(b1-4)Glc
Summary of the method: as §1

[12] = target: Neu5Ac(a2-8)Neu5Ac(a2-8)Neu5Ac(a2-8)Neu5Ac(a2-3)[GalNAc(b1-4)]Gal(b1-4)Glc
Summary of the method: as §1

[13] = target: Neu5Ac(a2-8)Neu5Gc(a2-3)Gal(b1-4)GlcNAc
Summary of the method: as §1

[14] = target: Neu5Ac(b2-6)Gal(b1-4)GlcNAc
Summary of the method: as §1

[15] = target: Neu5Ac(b2-6)GalNAc
Summary of the method: as §1

[16] = target: Neu5Ac9Ac(a2-3)Gal(b1-3)GlcNAc
Summary of the method: as §1

[17] = target: Neu5Ac9Ac(a2-3)Gal(b1-4)GlcNAc
Summary of the method: as §1

[18] = target: Neu5Ac9Ac(a2-6)Gal(b1-4)GlcNAc
Summary of the method: as §1

[19] = target: Neu5Gc(a2-3)Gal(b1-3)GlcNAc
Summary of the method: as §1

[20] = target: Neu5Gc(a2-3)Gal(b1-3)[Fuc(a1-4)]GlcNAc
Summary of the method: as §1

[21] = target: Neu5Gc(a2-3)Gal(b1-4)Glc
Summary of the method: as §1

[22] = target: Neu5Gc(a2-3)Gal(b1-4)GlcNAc
Summary of the method: as §1

[23] = target: Neu5Gc(a2-3)Gal(b1-4)GlcNAc(b1-3)Gal(b1-4)GlcNAc(b1-2)Man(a1-3)[Neu5Gc(a2-3)Gal(b1-4)GlcNAc(b1-3)Gal(b1-4)GlcNAc(b1-2)Man(a1-6)]Man(b1-4)GlcNAc(b1-4)GlcNAc
Summary of the method: as §1

[24] = target: Neu5Gc(a2-3)Gal(b1-4)[Fuc(a1-3)]GlcNAc
Summary of the method: as §1

[25] = target: Neu5Gc(a2-6)Gal(b1-4)GlcNAc
Summary of the method: as §1

[26] = target: Neu5Gc(a2-6)GalNAc
Summary of the method: as §1

[27] = target: Neu5Gc(a2-8)Neu5Ac(a2-3)Gal(b1-4)GlcNAc
Summary of the method: as §1

[28] = target: Neu5Gc(a2-8)Neu5Gc(a2-3)Gal(b1-4)GlcNAc
Summary of the method: as §1

[29] = target: Neu5Gc(a2-8)Neu5Gc(a2-3)Gal(b1-4)GlcNAc(b1-3)Gal(b1-4)GlcNAc
Summary of the method: as §1

[30] = target: Neu5Gc(a2-8)Neu5Gc(a2-6)Gal(b1-4)GlcNAc
Summary of the method: as §1

[31] = target: Neu5Gc(b2-6)Gal(b1-4)GlcNAc
Summary of the method: as §1

B1: cFel (Cyprinus carpio), P68512 (protein)
chain: LDCTVIDGNLKQIDAGSGSVVGVNNLNETFVLIDNVFTKISGSLKHFSVGPAGQLGVNTANNIFKYQSGGFVQLAGLLKQVDAGGDQIIAGVNMYDDIYCLNMDANNKWPSSNTPWVQINGKLKYYSCGPYSCWGVNSNDQIFIMKDVSSNVCSGSGSFINIPGLLSMIEVATDGSVFGVNSQGNLYQRTGVTRSKPDGTDWISMVACPNGHKHVSFDLGVLWLVCVDGSIRKCILTD
[1]
  glycan array binding signal (z-score): -0.089
[2]
  glycan array binding signal (z-score): -0.099
[3]
  glycan array binding signal (z-score): -0.344
[4]
  glycan array binding signal (z-score): 0.161
[5]
  glycan array binding signal (z-score): -0.444
[6]
  glycan array binding signal (z-score): 0.548
[7]
  glycan array binding signal (z-score): -0.006
[8]
  glycan array binding signal (z-score): 1.01
[9]
  glycan array binding signal (z-score): 0.979
[10]
  glycan array binding signal (z-score): 1.15
[11]
  glycan array binding signal (z-score): -0.16
[12]
  glycan array binding signal (z-score): -1.02
[13]
  glycan array binding signal (z-score): 2.02
[14]
  glycan array binding signal (z-score): 2.28
[15]
  glycan array binding signal (z-score): 0.244
[16]
  glycan array binding signal (z-score): 1.08
[17]
  glycan array binding signal (z-score): -0.301
[18]
  glycan array binding signal (z-score): -0.857
[19]
  glycan array binding signal (z-score): 2.89
[20]
  glycan array binding signal (z-score): -0.782
[21]
  glycan array binding signal (z-score): 0.825
[22]
  glycan array binding signal (z-score): -0.514
[23]
  glycan array binding signal (z-score): 0.736
[24]
  glycan array binding signal (z-score): -0.862
[25]
  glycan array binding signal (z-score): -1.34
[26]
  glycan array binding signal (z-score): 0.828
[27]
  glycan array binding signal (z-score): -0.275
[28]
  glycan array binding signal (z-score): 0.265
[29]
  glycan array binding signal (z-score): 0.267
[30]
  glycan array binding signal (z-score): 2.13
[31]
  glycan array binding signal (z-score): -0.806

— the supplement of paper PMC8728848
